Reference: patent publication US7118899B2, “Detection of transmembrane potentials by optical methods” (The Regents of the University of California, priority 2001, dated 2006)

Tested on: L-M(TK^−) cells
Experiment: Oxonol displacement currents (membrane translocation), whole-cell voltage clamp
Type: cell-based
Experimental: All cells were grown and handled like L-M(TK^−) except where noted. L-M(TK^−) cells were grown in Dulbecco's Modified Eagle Media (Gibco; Grand Island, N.Y.) with 10% fetal bovine serum (FBS) and 1% penicillin streptomycin (PS) (Gemini; Calabasas, Calif.). B104 cells were differentiated with 1 μM retinoic acid for 5 days prior to use. The cells were plated on glass coverslips at least one day before use. The adherent cells were washed and maintained in 2.5–3.0 mL of HBSS with 1 g/L glucose and 20 mM HEPES at pH 7.4. A freshly prepared 75 μM aqueous solution of the appropriate oxonol was made prior to an experiment from a DMSO stock solution. The cells were stained by mixing 100 μL of the oxonol solution with 750 μL of the bath and then adding the diluted solution to the cells. The dye was left for 30–40 minutes at a bath concentration of […]. 1.5 mM β-cyclodextrin in the bath solution was necessary for cell loading of DiSBA-C6-(3). The butyl and ethyl derivatives were water-soluble enough to load cells with out β-cyclodextrin complexation. DiSBA-C10-(3) was loaded in a pH 7.4 solution containing 290 mM sucrose and 10 mM HEPES, 364 mOsm, for 10 min at a bath concentration of […]. DiSBA-C10-(3) labeling was quenched by replacing the bath with HBSS solution. The cells were stained with 15 µg/mL of FL-WGA for 15 minutes. The B104 cells required a 125 µg/mL bath concentration to give satisfactory lectin staining. The excess dyes were removed with repeated washes with HBSS. If the excess ethyl or butyl oxonol derivatives were left in the bath, slow currents and fluorescence changes due to redistribution of the dyes into the cell were observed during depolarizations greater than 1 s. The cardiac myocytes [Henderson, S. A., Spencer, M., Sen, A., Kumar, C., Siddiqui, M. A. Q., and Chien, K. R. 1989. Structure organization, and expression of the rat cardiac myosin light chain-2 gene. J. Biol. Chem. 264:18142–18146] were a gift of Professor Kenneth Chien, UCSD. The Jurkat lymphocyte suspensions were grown in RPMI media with 5% heat inactivated FBS and 1% PS. 15–20 mL aliquots of the cellular suspension were washed three times before and after dye staining by centrifugation at 100×g for 4 minutes followed by additions of fresh HBSS.
Patch clamp recording were made using an Axopatch 1-D amplifier equipped with a CV-4 headstage from Axon Instruments (Foster City, Calif.). The data were digitized and stored using the PCLAMP software. […]
12.5 ms long voltage steps at 15 mV increments were applied to the cell, from a holding potential of −70 mV. […] Furthermore, the induced capacitance dq/dV from the oxonol movement is calculated to be ˜5 pF for 100 mV depolarization. […]

## CCCCCCN1C(=O)C(=CC=Cc2c(O)n(CCCCCC)c(=S)n(CCCCCC)c2=O)C(=O)N(CCCCCC)C1=S [DiSBA-C6-(3), (1,3-dihexyl-2-thiobarbiturate)trimethine oxonol]
100 mV depolarization
  induced capacitance dq/dV from the oxonol movement: ~5 pF
Fit to Eq. 1, FIG. 4
  Vh, membrane potential with equal numbers of ions in each well: −3.8±1.5 mV
  β, fraction of the externally applied potential felt by the translocating ion: 0.42±0.02
Fit to Eq. 1, FIG. 4, step voltage changes from −30 mV holding potential
  qmax, total charge in each energy well: 4770±140 fC
